Test results taken from PubChem BioAssay AID2685 (National Center for Advancing Translational Sciences (NCATS), 2010).
Some of the results follow. Shown are side measurements of this screen, not its main read-out; they come without a call. Most of these compounds were active or inconclusive in the main read-out, so they are no random draw. The note in brackets gives the kind of curve behind each potency; many fits are weak.

Assay: qHTS Assay for Lipid Storage Modulators in Drosophila S3 Cells;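 for cell number change: cells counted by Cell Tracker Red CMTPX staining in the red channel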
Conditions: BODIPY lipid droplet fluorescence, 18-24 h; for cell number change: measured here: cell count max response, cells fed with added oleic acid
Method in brief: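 Laser-scanning cytometry quantifies lipid droplet accumulation (500–530 nm total intensity; droplet/cell object ratio) in oleic acid-fed (400 uM added) Drosophila S3 cells treated with a concentration series. 20 uM Triacsin C defined 100% inhibition.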

[1] = measured here: lipid fluorescence (Fed channel) AC50, cells fed with added oleic acid
[2] = measured here: cell number channel AC50, cells fed with added oleic acid

Compound	AC50 [1]	cell number change [%]	AC50 [2]
Cc1cc(C)c(-c2csc(NC(=O)CCCc3nc4ccccc4c(=O)[nH]3)n2)c(C)c1	0.58 µM [rising, single point]		
N=C1SCC(=O)N1c1ncc(Cc2ccccc2Cl)s1	13 µM [falling, partial curve]	-23	
O=C(O)c1cccc(-n2cccc2/C=C2/NC(=O)N(Cc3ccccc3F)C2=O)c1		14.8	6.51 µM [falling, single point]
COc1ccc(NS(=O)(=O)c2cccc(C(=O)N/N=C(\C)c3ccncc3)c2)cc1		3.51	6.51 µM [falling, single point]
N#Cc1cccc(NC(=O)COC(=O)CCc2nc3ccccc3c(=O)[nH]2)c1		26.3	0.0731 µM [rising, full curve, poor fit]
CCOC(=O)Cc1cc(=O)n2[nH]c(-c3ccc(Cl)cc3)cc2n1	3.66 µM [rising, partial curve]	32.3	29.1 µM [rising, single point]
CCCN(CC(=O)Nc1ccc(C(N)=O)cc1)CC(=O)Nc1ccc(Cl)cc1Cl		54.5	25.9 µM [rising, partial curve]
Cc1ccccc1/C=N/n1c(-c2cc(-c3ccccc3)n[nH]2)n[nH]c1=S	13 µM [falling, partial curve, poor fit]	-43.2	18.4 µM [falling, partial curve, poor fit]
Cc1onc(-c2ccccc2)c1C(=O)N1CCOCC1		-110	32.6 µM [falling, partial curve, poor fit]
Oc1ccc2n[nH]nc2c1	4.11 µM [rising, full curve]	25.7	
Cc1cc(C)c(S(=O)(=O)c2ccccc2C(=O)O)c(C)c1	0.326 µM [falling, full curve, poor fit]	-24	
Cc1occc1C(=O)NC1CCCN(Cc2ccc(CC(C)C)cc2)C1 (stereo not given)		-34.2	29.1 µM [falling, single point]
CCOC(=O)C(NCc1ccc2c(c1)OCO2)(NC(=O)CC)C(F)(F)F (stereo not given)	0.517 µM [falling, partial curve]	-8.56	
CC(Oc1ccc(F)cc1)C(=O)N(CCC1=CCCCC1)c1c(N)n(Cc2ccccc2)c(=O)[nH]c1=O (stereo not given)		124	18.4 µM [rising, partial curve]
COC(=O)C(Cc1ccc(OC(=O)c2ccccc2Cl)cc1)N1Cc2ccccc2C1=O (stereo not given)		-20	
Cc1ccc(NC(=O)CSc2nc3[nH]ncc3c(=O)[nH]2)cc1Cl		50.8	16.4 µM [rising, single point]
Cc1ccc(Cl)cc1NC(=S)N(CCCN1CCOCC1)Cc1ccco1	0.00461 µM [rising, full curve, poor fit]	13.2	
COc1ccc(/C(O)=C2/C(=O)C(=O)N(c3ncccn3)C2c2ccc(OC)c(OC)c2)cc1 (stereo not given)	16.4 µM [rising, single point]	9.04	
Cc1cccc(OCC(=O)OC(C)C(=O)Nc2ccc(Cl)cn2)c1 (stereo not given)		1.61	
CCC(C)(C)C1CCC2(CC1)NC(=O)N(CC(=O)NCCc1c[nH]c3ccccc13)C2=O (stereo not given)	1.3 µM [falling, full curve]	2.69	6.51 µM [falling, single point]

Three entries from above, ordered by number of heavy atoms, rising:
Compound	AC50 [1]	cell number change [%]	AC50 [2]
CCOC(=O)Cc1cc(=O)n2[nH]c(-c3ccc(Cl)cc3)cc2n1	3.66 µM [rising, partial curve]	32.3	29.1 µM [rising, single point]
Cc1occc1C(=O)NC1CCCN(Cc2ccc(CC(C)C)cc2)C1 (stereo not given)		-34.2	29.1 µM [falling, single point]
CCCN(CC(=O)Nc1ccc(C(N)=O)cc1)CC(=O)Nc1ccc(Cl)cc1Cl		54.5	25.9 µM [rising, partial curve]

Next compounds:

Compound	AC50 [1]	cell number change [%]	AC50 [2]
Cc1c(C(=O)OCC2CCCO2)[nH]c2c1C(=O)CC(c1ccc(N(C)C)cc1)C2 (stereo not given)	16.4 µM [falling, single point]	-10.7	
CCOc1cccc(C(=O)Nc2nnc(-c3cccs3)s2)c1		-0.175	
C/C(=N/Nc1cc(-c2ccccc2)nc(-c2ccccc2)n1)c1ccc(O)cc1		-63.4	25.9 µM [falling, partial curve, poor fit]
COc1ccc(OC)c(C2c3[nH]c4ccccc4c3C[C@H]3C(=O)N(C4CC4)CC(=O)N23)c1 (stereo not given in full)	2.59 µM [rising, full curve, poor fit]	24.8	
O=C(Nc1cccnc1Cl)c1cccs1	29.1 µM [rising, single point]	9.13	
COc1ccc(Cl)cc1N1C(=O)C2CCCN2C1c1ccc(F)c(F)c1 (stereo not given)	0.082 µM [rising, full curve]	-16.2	
O=C1C=CC(=O)N1	18.4 µM [falling, partial curve]	-71.1	23.1 µM [falling, partial curve]
COC(=O)c1ccc(CNC(=O)CSC2=NCCS2)cc1		30.5	14.6 µM [rising, single point]
CCOc1ccc(N(CC(=O)N2CCOCC2)S(=O)(=O)c2ccc(SC)cc2)cc1		4.2	
COc1ccc(OC)c(S(=O)(=O)N2CCC(C(=O)N3CCN(Cc4ccccc4)CC3)CC2)c1	2.06 µM [falling, partial curve]		
O=C(NCc1ccccc1)c1ccc(=O)[nH]n1		2.37	
Cc1ccccc1N(CC(=O)N/N=C/c1cc(C)n(-c2ccccc2C)c1C)S(C)(=O)=O	0.58 µM [falling, single point]	-2.8	
OCC[C@@H]1C[C@@H](O)[C@H](O)[C@]2(OCCc3ccccc32)O1	0.58 µM [rising, single point]	27.8	
O=C(NCC1CCCN1S(=O)(=O)c1cccs1)c1ccc(Cl)cc1 (stereo not given)		-18.9	
CCc1c(C)c2ccc(OCC(=O)NCC3CCC(C(=O)O)CC3)cc2oc1=O (stereo not given)	29.1 µM [rising, single point]	0.581	
Cc1nc2ccc(NC(=O)N3CCCCC3)cc2s1		-3.5	
CCN(CC(=O)Nc1cccc(OC)c1)C(=O)C1CCN(C(=O)Nc2ccccc2)CC1	1.16 µM [rising, full curve, poor fit]	-18.1	1.16 µM [rising, full curve]
CC(=O)c1ccc(N2CCN(c3ccc(S(=O)(=O)NCCN(C)C)cc3[N+](=O)[O-])CC2)cc1		-7.28	
Cc1ccc(NC(=O)CSc2cccc3cccnc23)c(C)c1		-28.3	0.0651 µM [falling, full curve, poor fit]
COc1ccc(-c2ccc(SCC(=O)Nc3nnc(C)s3)nn2)cc1		68.9	20.6 µM [rising, single point]

Structural class, the compounds so far containing a Cl atom.
Compound	AC50 [1]	cell number change [%]	AC50 [2]
N=C1SCC(=O)N1c1ncc(Cc2ccccc2Cl)s1	13 µM [falling, partial curve]	-23	
CCOC(=O)Cc1cc(=O)n2[nH]c(-c3ccc(Cl)cc3)cc2n1	3.66 µM [rising, partial curve]	32.3	29.1 µM [rising, single point]
CCCN(CC(=O)Nc1ccc(C(N)=O)cc1)CC(=O)Nc1ccc(Cl)cc1Cl		54.5	25.9 µM [rising, partial curve]
COC(=O)C(Cc1ccc(OC(=O)c2ccccc2Cl)cc1)N1Cc2ccccc2C1=O (stereo not given)		-20	
Cc1ccc(NC(=O)CSc2nc3[nH]ncc3c(=O)[nH]2)cc1Cl		50.8	16.4 µM [rising, single point]
Cc1ccc(Cl)cc1NC(=S)N(CCCN1CCOCC1)Cc1ccco1	0.00461 µM [rising, full curve, poor fit]	13.2	
Cc1cccc(OCC(=O)OC(C)C(=O)Nc2ccc(Cl)cn2)c1 (stereo not given)		1.61	
O=C(Nc1cccnc1Cl)c1cccs1	29.1 µM [rising, single point]	9.13	
COc1ccc(Cl)cc1N1C(=O)C2CCCN2C1c1ccc(F)c(F)c1 (stereo not given)	0.082 µM [rising, full curve]	-16.2	
O=C(NCC1CCCN1S(=O)(=O)c1cccs1)c1ccc(Cl)cc1 (stereo not given)		-18.9	

(more compounds)

Compound	AC50 [1]	cell number change [%]	AC50 [2]
CN(C)CCSc1nnc(-c2ccccc2)o1		-80.8	7.31 µM [falling, partial curve]
COc1cccc(C2=NN(C(=O)c3ccccc3)C(O)(C(F)(F)F)C2)c1 (stereo not given)		5.11	2.06 µM [rising, partial curve, poor fit]
Cc1cc(C)c(-c2csc(Cc3nc(-c4cc5ccccc5oc4=O)cs3)n2)cc1C	0.092 µM [rising, full curve, poor fit]	4.61	
Cn1c(=O)c2cc(S(=O)(=O)N3CCC(c4ccccc4)CC3)ccc2n(C)c1=O		9.92	
CCOC(=O)c1c(NC(=O)C2C3C=CC(C3)C2(C)C(=O)O)sc2c1CCCC2 (stereo not given)	2.59 µM [rising, full curve, poor fit]	0.718	
Cc1sc2nc(C(C)C)nc(SCC(=O)N3CCOCC3)c2c1C	0.00461 µM [rising, full curve, poor fit]	18.8	
O=C(N/N=C/c1ccc(N2CCCCC2)o1)C(O)(c1ccccc1)c1ccccc1	20.6 µM [falling, partial curve, poor fit]	-3.45	
COc1cc(/C=C/C(=O)O)cc(S(=O)(=O)Nc2ccc(S(=O)(=O)N3CCCCC3)cc2)c1OC	29.1 µM [rising, single point]	-6.34	
Cc1cc(C)c2[nH]c(C(=O)Nc3ccc4c(c3)OCO4)cc2c1	1.84 µM [rising, full curve, poor fit]	13.8	
Cc1ccc(S(=O)(=O)N(C)CC(=O)Oc2ccc(-c3nnco3)cc2)cc1	0.461 µM [rising, single point]	-4.17	
CCCN1CCN(C(=O)c2cc(COc3ccc4ncccc4c3)on2)CC1	18.4 µM [falling, single point]	-17	
O=c1[nH]c2c(Br)cnc([N+](=O)[O-])c2[nH]1	1.03 µM [falling, full curve]	-13.2	
CC(C)N(c1ccccc1)c1ccc(NC(=O)C2CCCO2)cc1 (stereo not given)	29.1 µM [falling, partial curve]	-58.5	20.6 µM [falling, single point]
COC(=O)c1ccc(CN2CCCC(C(=O)Nc3cccc(-n4cnnn4)c3)C2)cc1 (stereo not given)		-3.76	
CCOC(=O)c1c(O)cc(C)cc1Nc1ccccc1	29.1 µM [rising, single point]	127	29.1 µM [rising, single point]
CCOC(=O)Cn1c(=O)oc2cc(S(=O)(=O)N3CCCC(C)C3)ccc21 (stereo not given)	29.1 µM [rising, single point]	21.5	
Cc1cccn2c(=O)c3cc(C(=O)NC4CCCC4)c(=N)n(C4CCCC4)c3nc12	6.51 µM [rising, single point]	147	4.61 µM [rising, full curve]
Cc1nc(-c2cccc(NC(=O)COc3ccc(Cl)cc3)c2)cs1	1.84 µM [rising, partial curve]	-6.36	
C/C(=N\O)c1ccn(S(=O)(=O)c2ccc(Cl)cc2)c1	0.058 µM [falling, full curve, poor fit]		
Cc1ccc(S(=O)(=O)N2CCOCC2)cc1NC(=O)CNc1ccccc1N1CCCC1=O		138	18.4 µM [rising, single point]
